PubChem BioAssay AID686943, Drosophila RNAi Screening Center, 2013
The deposit covers about 23,000 reagents; below is an unselected part of those with a known target gene and a result. 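Extra replicates exist only for a retested subset of genes; insulin dose and duration not given; both raised and lowered dpERK matter.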 The numbers tell different reagents against one gene apart. Not stated in the record: the amount of reagent, the time to read-out.

Aim: 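Fly genes whose loss alters ERK activation after insulin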 (primary screen)
Cells: Drosophila S2R+ haemocyte-like cells expressing YFP-tagged ERK (Rolled)
Reagent: long dsRNA against Drosophila genes
Challenge: insulin stimulation versus unstimulated cells; dose and duration not given
Measured: 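Antibody staining for doubly phosphorylated ERK divided by ERK-YFP signal, as plate z-scores, in insulin-treated and untreated cells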
Direction: replicate 1, z-score of dpERK with insulin and replicate 2, z-score of dpERK with insulin: higher = more active ERK per ERK-YFP after insulin; replicate 1, z-score of dpERK under basal conditions: higher = more basal active ERK per ERK-YFP; replicate 1, z-score of ERK-YFP with insulin: higher = more YFP-tagged ERK signal

no.	gene	dsRNA no.	replicate 1, z-score of dpERK with insulin	replicate 2, z-score of dpERK with insulin	replicate 1, z-score of dpERK under basal conditions	replicate 1, z-score of ERK-YFP with insulin
1	eIF2Bepsilon (eukaryotic translation initiation factor 2B subunit epsilon)	1	0.06	0.24	-0.51	-1.13
2	CG9114	1	1.31	1.4	-0.37	-0.05
3	CG12111	1	0.4	0	0.08	0.2
4	CG7406	1	0.66	0.13	-0.18	-0.4
5	CG7203	1	0.44	0.28	1.45	-0.72
6	Obp56f (Odorant-binding protein 56f)	1	-2.34	-3.41	-0.98	1.69
7	Ppox (Protoporphyrinogen oxidase)	1	-0.04	0.07	0.76	0.52
8	CSN8 (COP9 signalosome subunit 8)	1	-0.06	-0.05	-0.33	-0.77
9	miple1 (midkine and pleiotrophin 1)	1	1.21	1.12	0.13	-1.49
10	CG14569	1	0.02	0.68	-1	0.29
11	VhaPPA1-1 (Vacuolar H[+] ATPase PPA1 subunit 1)	1	1.44	-0.12	-0.41	0.41
12	Gr23a (Gustatory receptor 23a)	1	-0.22	-0.2	-0.88	0.98
13	Socs16D (Suppressor of Cytokine Signaling at 16D)	1	0.51	1.32	-0.11	-0.47
14	CG18746	1	-0.26	0	-0.75	-0.17
15	toe (twin of eyg)	1	0.2	0.51	-1.02	-0.23
16	toe (twin of eyg)	2	-0.39	0.05	0.91	0.51
17	MCPH1 (Microcephalin)	1	-0.04	-0.13	0.27	1.19
18	MCPH1 (Microcephalin)	2	0.1	0.64	-0.58	0.34
19	MCPH1 (Microcephalin)	3	-0.03	-0.61	-0.24	0.32
20	l(1)sc (lethal of scute)	1	0.79	-0.15	-0.31	-0.2
21	CG42822	1	0.96	0.39	-0.12	0.6
22	Miro (Mitochondrial Rho)	1	-0.77	-0.12	0.22	0.35
23	CG15721	1	0.53	0.36	-0.46	-0.79

Targets above whose target name begins with T or t (2):
gene	dsRNA no.	replicate 1, z-score of dpERK with insulin	replicate 2, z-score of dpERK with insulin	replicate 1, z-score of dpERK under basal conditions	replicate 1, z-score of ERK-YFP with insulin
toe (twin of eyg)	1	0.2	0.51	-1.02	-0.23
toe (twin of eyg)	2	-0.39	0.05	0.91	0.51
